Test results as given in patent US20230174641A1.
No constants are given. Whether binding was seen depends on the method and setting. Some binding calls cover weakened binding; strength is not graded here.

Sequences of proteins named here, by UniProt entry; tags and fusion partners are left off.
UniProt Q01718: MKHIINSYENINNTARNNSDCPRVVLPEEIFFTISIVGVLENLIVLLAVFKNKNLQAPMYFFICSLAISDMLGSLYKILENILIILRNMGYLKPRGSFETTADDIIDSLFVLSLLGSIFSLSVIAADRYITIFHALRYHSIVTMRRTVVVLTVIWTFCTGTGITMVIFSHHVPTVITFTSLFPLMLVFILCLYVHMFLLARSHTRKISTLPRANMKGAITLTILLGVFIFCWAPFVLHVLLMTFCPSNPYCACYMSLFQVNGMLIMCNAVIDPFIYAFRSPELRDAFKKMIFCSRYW

T1: 9A
T1 sequence (peptide): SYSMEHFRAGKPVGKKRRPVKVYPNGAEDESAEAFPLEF


Key:
[1] = target: melanocortin-2 receptor (MC2R) (UniProt Q01718); assay: 125I-ACTH (1-39) tracer on MC2R-transfected cells, Cytostar-T scintillating microplates, counts as % of binding without antibody
[2] = target: T1, 9A; assay: condition: 100 nM (0.45 µg/mL, from [p-2087]; not printed on the sheet); SPR (ProteOn XPR36), Ab9 amine-coupled on GLC chip, mutant peptide injected for 2 min

Row | Binder | binding [1] | binding [2]
1 | SYSMEHFRWGKPVGKKRRPVKVYPNGAEDESAEAFPLEF (125I on Tyr 23) [ACTH (1-39) 23 TYR, [125I]] | binds | –
2 | Ab9 (antibody, human IgG1, kappa, N297A, V domains shown) VH: QSVEESGGRLVTPGTPLTLTCTVSGFSLNSYAMSWVRQAPGEGLEWIGIISDSGRTYYASWAKGRFTISKTSTTVDLKITSPTTEDTATYFCAREPEYGYDDYGDWVSDLWGPGTLVTVSS VL: DVVMTQTPASVEAAVGGTVTIKCQASQSISSYLSWYQQKPGQPPKLLIYRASTLASGVPSRFKGSGSGTQFTLTISDLECADAATYYCQSYYYSSSITYRNAFGGGTEVVVKR | – | no binding
